According to US6953786B2, “Compositions comprising plant-derived polyphenolic compounds and inhibitors of reactive oxygen species and methods of using thereof” (The Regents of the University of California, priority 2002, dated 2005):
For at least one compound, name, drawing or mass did not settle the structure.

Tested on: Akt/PKB
Assay: Akt/PKB phosphorylation (Western blot)
Assay type: cell-based, human
Details: Mia PACA-2, 72 hours, with serum; genistein 100 μM, LY294002 50 μM
Method: To determine whether phosphatidylinositol 3-kinase (PI 3-kinase) and Akt/PKB mediate the effects of serum on NF-κB activation and that the effects of polyphenolic compounds on NF-κB activation are due to an ability to inhibit PI 3-kinase, the following assays were conducted. Specifically, to determine the effects of serum, LY294002, a PI 3-kinase inhibitor, and genistein on Akt/PKB phosphorylation, Mia PACA-2 cells were cultured for 72 hours in the absence or presence of serum with or without 100 μM genistein (GN) or 50 μM LY294002. Western blots were performed on whole cell lysates as described above except that specific antibodies against phosphorylated and total Akt/PKB were used (Akt/PKB is Anti-pS473 AktpAB from Promega, Madison Wis. and total Akt is Akt ½ from Santa Cruz, Santa Cruz, Calif.). The membranes were then stripped and re-probed with an antibody against total Akt .

O=c1cc(N2CCOCC2)oc2c(-c3ccccc3)cccc12 [LY294002, reference compound] was tested, and the “serum-induced Akt/PKB phosphorylation/activation” value was “prevents the serum activation”.
